# Test results from the supplement of paper PMC12823440, “Inhibitors supercharge kinase turnover through native proteolytic circuits” (Nature, 2025).
# Chains of the proteins cited; added tags and fusions are not shown. Lines headed by an entry give the natural chain unless they say otherwise; changes in a name come on top.
# UniProt P29317, whole entry: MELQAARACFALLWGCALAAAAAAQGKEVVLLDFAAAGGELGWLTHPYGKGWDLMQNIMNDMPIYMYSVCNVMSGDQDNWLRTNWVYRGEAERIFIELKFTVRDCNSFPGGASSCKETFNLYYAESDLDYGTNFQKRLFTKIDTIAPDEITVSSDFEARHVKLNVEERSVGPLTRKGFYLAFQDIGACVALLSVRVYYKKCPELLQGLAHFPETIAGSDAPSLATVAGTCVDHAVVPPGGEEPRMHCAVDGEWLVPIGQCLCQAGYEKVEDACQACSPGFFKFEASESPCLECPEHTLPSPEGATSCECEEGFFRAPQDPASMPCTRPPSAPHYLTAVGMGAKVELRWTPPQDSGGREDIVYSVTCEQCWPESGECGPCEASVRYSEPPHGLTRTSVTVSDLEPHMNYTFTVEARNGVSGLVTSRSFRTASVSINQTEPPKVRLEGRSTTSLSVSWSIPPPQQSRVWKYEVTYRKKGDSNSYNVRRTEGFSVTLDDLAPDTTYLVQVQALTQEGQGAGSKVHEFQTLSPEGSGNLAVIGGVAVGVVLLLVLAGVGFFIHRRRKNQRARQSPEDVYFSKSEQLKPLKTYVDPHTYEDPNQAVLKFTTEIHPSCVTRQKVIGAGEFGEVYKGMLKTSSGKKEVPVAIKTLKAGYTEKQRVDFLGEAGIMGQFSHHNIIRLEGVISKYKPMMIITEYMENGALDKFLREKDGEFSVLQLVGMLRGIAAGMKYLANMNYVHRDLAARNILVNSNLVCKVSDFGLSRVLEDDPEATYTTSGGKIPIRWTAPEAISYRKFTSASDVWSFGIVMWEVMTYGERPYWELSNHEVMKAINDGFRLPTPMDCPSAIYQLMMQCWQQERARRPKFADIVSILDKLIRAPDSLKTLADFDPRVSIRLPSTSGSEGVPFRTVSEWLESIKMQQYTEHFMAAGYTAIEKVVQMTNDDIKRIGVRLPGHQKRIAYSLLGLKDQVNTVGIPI
# UniProt P11362, whole entry, looked up: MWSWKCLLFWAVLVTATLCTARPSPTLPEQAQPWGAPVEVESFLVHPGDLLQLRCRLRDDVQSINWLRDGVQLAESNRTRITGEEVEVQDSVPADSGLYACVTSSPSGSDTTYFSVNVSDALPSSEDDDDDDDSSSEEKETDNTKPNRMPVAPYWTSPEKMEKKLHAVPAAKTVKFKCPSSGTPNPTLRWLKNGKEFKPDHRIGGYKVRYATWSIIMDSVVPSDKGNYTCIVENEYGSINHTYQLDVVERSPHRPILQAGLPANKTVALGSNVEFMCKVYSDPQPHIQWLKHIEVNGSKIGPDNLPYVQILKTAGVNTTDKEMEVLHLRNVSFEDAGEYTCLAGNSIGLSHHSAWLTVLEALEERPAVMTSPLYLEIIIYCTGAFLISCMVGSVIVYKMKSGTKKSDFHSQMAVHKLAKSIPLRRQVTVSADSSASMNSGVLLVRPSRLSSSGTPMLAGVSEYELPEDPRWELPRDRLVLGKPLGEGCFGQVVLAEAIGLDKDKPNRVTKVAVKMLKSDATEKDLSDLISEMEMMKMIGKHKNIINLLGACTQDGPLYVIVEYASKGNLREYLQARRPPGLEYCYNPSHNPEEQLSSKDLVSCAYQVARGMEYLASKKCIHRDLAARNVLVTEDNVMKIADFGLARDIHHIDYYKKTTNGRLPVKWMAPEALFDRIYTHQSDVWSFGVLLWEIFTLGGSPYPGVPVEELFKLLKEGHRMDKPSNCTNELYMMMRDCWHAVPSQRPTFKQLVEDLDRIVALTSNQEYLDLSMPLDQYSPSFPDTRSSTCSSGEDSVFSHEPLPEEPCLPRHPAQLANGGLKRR
# UniProt P21802, whole entry, looked up: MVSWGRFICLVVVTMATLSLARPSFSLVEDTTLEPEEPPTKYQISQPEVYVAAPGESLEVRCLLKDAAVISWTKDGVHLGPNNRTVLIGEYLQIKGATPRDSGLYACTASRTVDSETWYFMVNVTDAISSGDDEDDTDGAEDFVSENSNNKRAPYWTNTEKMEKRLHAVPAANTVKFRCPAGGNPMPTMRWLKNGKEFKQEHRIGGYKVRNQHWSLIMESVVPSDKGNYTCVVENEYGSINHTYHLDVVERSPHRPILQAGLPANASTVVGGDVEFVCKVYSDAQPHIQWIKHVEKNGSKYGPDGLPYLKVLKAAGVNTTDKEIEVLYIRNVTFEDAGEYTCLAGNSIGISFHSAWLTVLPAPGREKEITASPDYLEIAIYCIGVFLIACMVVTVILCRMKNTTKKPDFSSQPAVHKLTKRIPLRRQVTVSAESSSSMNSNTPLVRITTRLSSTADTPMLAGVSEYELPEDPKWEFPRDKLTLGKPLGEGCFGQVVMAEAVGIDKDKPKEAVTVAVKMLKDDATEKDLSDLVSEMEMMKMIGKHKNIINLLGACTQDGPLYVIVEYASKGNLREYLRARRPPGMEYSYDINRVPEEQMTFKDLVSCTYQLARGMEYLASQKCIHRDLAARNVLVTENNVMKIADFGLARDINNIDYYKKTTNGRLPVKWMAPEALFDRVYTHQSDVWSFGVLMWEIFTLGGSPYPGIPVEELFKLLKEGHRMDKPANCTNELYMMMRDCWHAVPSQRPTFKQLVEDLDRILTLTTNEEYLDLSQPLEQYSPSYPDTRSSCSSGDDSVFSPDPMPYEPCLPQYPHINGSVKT
# UniProt P22607, whole entry, looked up: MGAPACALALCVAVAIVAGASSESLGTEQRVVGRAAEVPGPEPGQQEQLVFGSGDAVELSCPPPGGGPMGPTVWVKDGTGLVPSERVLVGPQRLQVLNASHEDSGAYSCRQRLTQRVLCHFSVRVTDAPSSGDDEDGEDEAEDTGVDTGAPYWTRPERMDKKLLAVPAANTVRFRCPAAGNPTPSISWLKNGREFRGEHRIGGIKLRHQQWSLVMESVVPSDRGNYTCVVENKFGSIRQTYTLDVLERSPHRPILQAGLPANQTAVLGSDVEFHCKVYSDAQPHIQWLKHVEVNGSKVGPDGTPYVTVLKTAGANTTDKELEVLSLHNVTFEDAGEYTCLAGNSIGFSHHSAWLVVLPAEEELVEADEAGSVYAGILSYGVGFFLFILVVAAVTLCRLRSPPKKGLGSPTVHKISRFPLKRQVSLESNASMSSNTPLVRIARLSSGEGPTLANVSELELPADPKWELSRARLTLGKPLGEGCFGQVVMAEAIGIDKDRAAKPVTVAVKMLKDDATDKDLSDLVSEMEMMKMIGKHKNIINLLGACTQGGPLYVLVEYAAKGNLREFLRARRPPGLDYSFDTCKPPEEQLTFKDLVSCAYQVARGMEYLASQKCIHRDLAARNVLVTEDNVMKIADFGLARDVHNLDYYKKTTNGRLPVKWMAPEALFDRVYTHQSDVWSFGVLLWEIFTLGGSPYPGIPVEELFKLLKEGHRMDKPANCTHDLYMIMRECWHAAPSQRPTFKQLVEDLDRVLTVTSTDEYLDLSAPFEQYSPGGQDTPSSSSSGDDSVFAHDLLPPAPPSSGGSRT
# UniProt P36888, whole entry: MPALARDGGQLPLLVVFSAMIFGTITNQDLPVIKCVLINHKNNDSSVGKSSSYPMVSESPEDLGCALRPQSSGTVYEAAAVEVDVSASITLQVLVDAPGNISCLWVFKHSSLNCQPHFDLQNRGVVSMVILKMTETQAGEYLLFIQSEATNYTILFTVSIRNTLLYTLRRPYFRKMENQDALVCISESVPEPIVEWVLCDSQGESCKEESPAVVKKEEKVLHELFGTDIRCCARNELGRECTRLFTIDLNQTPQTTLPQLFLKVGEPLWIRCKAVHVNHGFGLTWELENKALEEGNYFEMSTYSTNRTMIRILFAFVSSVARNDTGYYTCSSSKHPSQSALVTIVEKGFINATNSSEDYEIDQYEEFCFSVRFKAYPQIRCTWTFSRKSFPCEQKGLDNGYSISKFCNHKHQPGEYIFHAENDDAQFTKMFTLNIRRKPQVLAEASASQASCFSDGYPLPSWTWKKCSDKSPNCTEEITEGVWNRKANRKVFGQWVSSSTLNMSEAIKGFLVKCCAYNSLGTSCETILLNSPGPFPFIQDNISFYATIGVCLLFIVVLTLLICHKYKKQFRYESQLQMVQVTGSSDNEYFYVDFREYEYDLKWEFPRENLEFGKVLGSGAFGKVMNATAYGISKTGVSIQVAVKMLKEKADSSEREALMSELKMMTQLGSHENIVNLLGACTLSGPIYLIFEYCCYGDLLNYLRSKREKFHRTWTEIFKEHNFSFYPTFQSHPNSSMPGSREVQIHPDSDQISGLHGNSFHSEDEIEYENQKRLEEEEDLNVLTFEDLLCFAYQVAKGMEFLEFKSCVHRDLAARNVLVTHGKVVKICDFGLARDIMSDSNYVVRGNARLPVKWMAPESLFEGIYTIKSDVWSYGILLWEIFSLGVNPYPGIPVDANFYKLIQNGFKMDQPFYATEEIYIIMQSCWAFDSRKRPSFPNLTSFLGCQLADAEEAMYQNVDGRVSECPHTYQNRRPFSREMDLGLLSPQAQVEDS
# UniProt P49840: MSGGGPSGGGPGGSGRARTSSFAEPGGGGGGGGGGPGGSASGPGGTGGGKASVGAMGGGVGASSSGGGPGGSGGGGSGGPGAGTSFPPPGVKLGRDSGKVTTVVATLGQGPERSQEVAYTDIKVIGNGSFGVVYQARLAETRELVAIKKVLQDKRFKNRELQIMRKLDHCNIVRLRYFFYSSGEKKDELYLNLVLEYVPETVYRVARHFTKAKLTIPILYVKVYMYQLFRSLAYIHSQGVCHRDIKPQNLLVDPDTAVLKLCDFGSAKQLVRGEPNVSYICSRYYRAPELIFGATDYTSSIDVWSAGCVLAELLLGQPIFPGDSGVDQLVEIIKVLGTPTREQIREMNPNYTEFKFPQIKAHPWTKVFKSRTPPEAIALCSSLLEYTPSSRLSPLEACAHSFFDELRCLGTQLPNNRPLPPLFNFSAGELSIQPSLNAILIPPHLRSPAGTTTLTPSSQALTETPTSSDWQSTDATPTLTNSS
# UniProt P14616: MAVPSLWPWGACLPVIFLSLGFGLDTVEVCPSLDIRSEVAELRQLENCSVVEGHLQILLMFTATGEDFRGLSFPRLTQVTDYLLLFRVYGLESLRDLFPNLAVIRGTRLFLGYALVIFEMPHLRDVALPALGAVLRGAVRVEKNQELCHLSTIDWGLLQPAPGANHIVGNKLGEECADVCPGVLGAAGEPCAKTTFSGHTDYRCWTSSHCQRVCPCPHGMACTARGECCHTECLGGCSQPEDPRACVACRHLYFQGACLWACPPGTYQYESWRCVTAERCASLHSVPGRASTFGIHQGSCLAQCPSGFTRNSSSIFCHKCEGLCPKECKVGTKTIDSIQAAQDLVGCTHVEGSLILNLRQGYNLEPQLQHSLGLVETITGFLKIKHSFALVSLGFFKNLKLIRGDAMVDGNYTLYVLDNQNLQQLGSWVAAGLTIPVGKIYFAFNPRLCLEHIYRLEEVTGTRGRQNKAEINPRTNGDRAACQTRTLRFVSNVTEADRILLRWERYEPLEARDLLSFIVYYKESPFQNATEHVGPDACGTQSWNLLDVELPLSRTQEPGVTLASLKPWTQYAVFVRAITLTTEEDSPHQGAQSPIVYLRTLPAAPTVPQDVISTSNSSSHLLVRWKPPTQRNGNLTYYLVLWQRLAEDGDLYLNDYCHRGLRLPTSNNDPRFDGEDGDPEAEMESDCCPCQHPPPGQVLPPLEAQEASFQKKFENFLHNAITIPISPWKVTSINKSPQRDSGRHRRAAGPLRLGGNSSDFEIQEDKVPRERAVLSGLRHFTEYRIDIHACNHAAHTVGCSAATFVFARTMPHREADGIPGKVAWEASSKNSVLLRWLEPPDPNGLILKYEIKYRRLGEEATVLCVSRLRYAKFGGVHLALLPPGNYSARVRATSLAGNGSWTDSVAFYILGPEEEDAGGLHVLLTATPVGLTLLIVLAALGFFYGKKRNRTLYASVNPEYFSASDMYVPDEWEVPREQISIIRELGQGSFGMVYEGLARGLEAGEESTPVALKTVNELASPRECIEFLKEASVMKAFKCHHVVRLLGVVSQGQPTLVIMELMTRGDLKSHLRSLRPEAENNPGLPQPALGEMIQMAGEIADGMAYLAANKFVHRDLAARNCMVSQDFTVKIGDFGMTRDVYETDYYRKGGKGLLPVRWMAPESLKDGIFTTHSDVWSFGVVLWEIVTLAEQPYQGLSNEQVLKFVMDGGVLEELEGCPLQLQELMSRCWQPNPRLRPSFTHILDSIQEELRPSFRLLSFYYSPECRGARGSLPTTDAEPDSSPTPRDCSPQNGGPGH
# Structures can show the parent of a compound that is named as a salt. This is one part of the list. The calls rarely recur for the same compound in another form.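 Kinases, fused to nanoluciferase, were expressed in K562 cells; luminescence was measured every 4 h from 2 to 18 h as percent of control (DMSO = 100%, positive control = 0%). A time point is decreased if signal falls significantly (2 sigma). Hits were called by the authors by a rule that is not shown; the count of time points alone does not decide it.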
# What was measured:
# Assay in all cases: kinase-Nluc reporter destabilization hit call (1 = scored as downregulated) (binary); higher = compound decreases kinase abundance
# Details in all cases: K562, 2-18 h
# EGFR = EGFR (UniProt P00533)
# EGFR_G719S = EGFR_G719S (UniProt P00533)
# EGFR_G719S_T790M = EGFR_G719S_T790M (UniProt P00533)
# EGFR_L718V = EGFR_L718V (UniProt P00533)
# EGFR_L858R = EGFR_L858R (UniProt P00533)
# EGFR_L861Q = EGFR_L861Q (UniProt P00533)
# EGFR_T790M = EGFR_T790M (UniProt P00533)
# EPHA2 = EPHA2 (UniProt P29317)
# ERBB3 = ERBB3 (UniProt P21860)
# [1] = target: ERBB4_R711C (clone: ERBB4_mut) (UniProt Q15303)
# ERN1 = ERN1 (UniProt O75460)
# FGFR1 = FGFR1 (UniProt P11362)
# FGFR2 = FGFR2 (UniProt P21802)
# FGFR3 = FGFR3 (UniProt P22607)
# FGR = FGR (UniProt P09769)
# FLT3 = FLT3 (UniProt P36888)
# FYN = FYN (UniProt P06241)
# GSK3A = GSK3A (UniProt P49840)
# HER2 = HER2 (UniProt P04626)
# INSRR = INSRR (UniProt P14616)
SMILES,kinase-Nluc reporter destabilization hit call (EGFR; 2.5 µM),kinase-Nluc reporter destabilization hit call (EGFR; 10 µM),kinase-Nluc reporter destabilization hit call (EGFR_G719S; 2.5 µM),kinase-Nluc reporter destabilization hit call (EGFR_G719S; 10 µM),kinase-Nluc reporter destabilization hit call (EGFR_G719S_T790M; 2.5 µM),kinase-Nluc reporter destabilization hit call (EGFR_G719S_T790M; 10 µM),kinase-Nluc reporter destabilization hit call (EGFR_L718V; 2.5 µM),kinase-Nluc reporter destabilization hit call (EGFR_L718V; 10 µM),kinase-Nluc reporter destabilization hit call (EGFR_L858R; 2.5 µM),kinase-Nluc reporter destabilization hit call (EGFR_L858R; 10 µM),kinase-Nluc reporter destabilization hit call (EGFR_L861Q; 2.5 µM),kinase-Nluc reporter destabilization hit call (EGFR_L861Q; 10 µM),kinase-Nluc reporter destabilization hit call (EGFR_T790M; 2.5 µM),kinase-Nluc reporter destabilization hit call (EGFR_T790M; 10 µM),kinase-Nluc reporter destabilization hit call (EPHA2; 2.5 µM),kinase-Nluc reporter destabilization hit call (EPHA2; 10 µM),kinase-Nluc reporter destabilization hit call (ERBB3; 2.5 µM),kinase-Nluc reporter destabilization hit call (ERBB3; 10 µM),kinase-Nluc reporter destabilization hit call ([1]; 2.5 µM),kinase-Nluc reporter destabilization hit call ([1]; 10 µM),kinase-Nluc reporter destabilization hit call (ERN1; 2.5 µM),kinase-Nluc reporter destabilization hit call (ERN1; 10 µM),kinase-Nluc reporter destabilization hit call (FGFR1; 2.5 µM),kinase-Nluc reporter destabilization hit call (FGFR1; 10 µM),kinase-Nluc reporter destabilization hit call (FGFR2; 2.5 µM),kinase-Nluc reporter destabilization hit call (FGFR2; 10 µM),kinase-Nluc reporter destabilization hit call (FGFR3; 2.5 µM),kinase-Nluc reporter destabilization hit call (FGFR3; 10 µM),kinase-Nluc reporter destabilization hit call (FGR; 2.5 µM),kinase-Nluc reporter destabilization hit call (FGR; 10 µM),kinase-Nluc reporter destabilization hit call (FLT3; 2.5 µM),kinase-Nluc reporter destabilization hit call (FLT3; 10 µM),kinase-Nluc reporter destabilization hit call (FYN; 2.5 µM),kinase-Nluc reporter destabilization hit call (FYN; 10 µM),kinase-Nluc reporter destabilization hit call (GSK3A; 2.5 µM),kinase-Nluc reporter destabilization hit call (GSK3A; 10 µM),kinase-Nluc reporter destabilization hit call (HER2; 2.5 µM),kinase-Nluc reporter destabilization hit call (HER2; 10 µM),kinase-Nluc reporter destabilization hit call (INSRR; 2.5 µM),kinase-Nluc reporter destabilization hit call (INSRR; 10 µM)
CCN(CC)Cc1ccc(OC)c(-c2cc3c(-c4ccc(C(=O)O)c(C(C)C)c4)ccnc3[nH]2)c1,inactive: 0,inactive: 0,inactive: 0,inactive: 0,inactive: 0,inactive: 0,inactive: 0,inactive: 0,inactive: 0,inactive: 0,inactive: 0,inactive: 0,inactive: 0,inactive: 0,inactive: 0,inactive: 0,inactive: 0,inactive: 0,inactive: 0,inactive: 0,inactive: 0,inactive: 0,inactive: 0,inactive: 0,inactive: 0,inactive: 0,inactive: 0,inactive: 0,inactive: 0,inactive: 0,inactive: 0,inactive: 0,inactive: 0,inactive: 0,inactive: 0,inactive: 0,inactive: 0,inactive: 0,inactive: 0,inactive: 0
Nc1cncc(-c2cn3ccnc3c(Nc3ccc(N4CCN(C5COC5)CC4)cc3)n2)n1 [Lanraplenib],–,inactive: 0,–,inactive: 0,–,inactive: 0,–,inactive: 0,–,inactive: 0,–,inactive: 0,–,inactive: 0,–,inactive: 0,–,inactive: 0,–,inactive: 0,–,inactive: 0,–,inactive: 0,–,inactive: 0,–,inactive: 0,–,inactive: 0,–,inactive: 0,–,inactive: 0,–,inactive: 0,–,inactive: 0,–,inactive: 0
CCS(=O)(=O)N1CCN(c2ccc(Nc3ncc(C(N)=O)c(NC4CC4)n3)cc2)CC1 [Cerdulatinib (hydrochloride)],–,inactive: 0,–,inactive: 0,–,inactive: 0,–,inactive: 0,–,inactive: 0,–,inactive: 0,–,inactive: 0,–,inactive: 0,–,inactive: 0,–,inactive: 0,–,inactive: 0,–,inactive: 0,–,inactive: 0,–,inactive: 0,–,inactive: 0,–,inactive: 0,–,inactive: 0,–,inactive: 0,–,inactive: 0,–,inactive: 0
CCS(=O)(=O)N1CCN(c2ccc(Nc3ncc(C(N)=O)c(NC4CC4)n3)cc2)CC1 [Cerdulatinib],–,inactive: 0,–,inactive: 0,–,inactive: 0,–,inactive: 0,–,inactive: 0,–,inactive: 0,–,inactive: 0,–,inactive: 0,–,inactive: 0,–,inactive: 0,–,inactive: 0,–,inactive: 0,–,inactive: 0,–,inactive: 0,–,inactive: 0,–,inactive: 0,–,inactive: 0,–,inactive: 0,–,inactive: 0,–,inactive: 0
CNC(=O)c1cc(Oc2ccc(NC(=O)Nc3ccc(Cl)c(C(F)(F)F)c3)c(F)c2)ccn1 [Regorafenib],inactive: 0,–,inactive: 0,–,inactive: 0,–,inactive: 0,–,inactive: 0,–,inactive: 0,–,inactive: 0,–,inactive: 0,–,inactive: 0,–,inactive: 0,–,inactive: 0,–,inactive: 0,–,inactive: 0,–,inactive: 0,–,inactive: 0,–,inactive: 0,–,inactive: 0,–,inactive: 0,–,inactive: 0,–,inactive: 0,–
CN1CCCN(C(=O)c2cccc(-c3ccc(/C=C4/C(=O)Nc5ccc(Cl)cc54)o3)c2)CC1 [CX-6258 (hydrochloride hydrate)],inactive: 0,–,inactive: 0,–,inactive: 0,–,inactive: 0,–,inactive: 0,–,inactive: 0,–,inactive: 0,–,inactive: 0,–,inactive: 0,–,inactive: 0,–,inactive: 0,–,inactive: 0,–,inactive: 0,–,inactive: 0,–,inactive: 0,–,inactive: 0,–,inactive: 0,–,inactive: 0,–,inactive: 0,–,inactive: 0,–
C[C@H](CCC(=O)NCCS(=O)(=O)O)[C@H]1CC[C@H]2[C@@H]3[C@@H](O)C[C@@H]4C[C@H](O)CC[C@]4(C)[C@H]3CC[C@]12C [Tauroursodeoxycholate (sodium)],–,inactive: 0,–,inactive: 0,–,inactive: 0,–,inactive: 0,–,inactive: 0,–,inactive: 0,–,inactive: 0,–,inactive: 0,–,inactive: 0,–,inactive: 0,–,inactive: 0,–,inactive: 0,–,inactive: 0,–,inactive: 0,–,inactive: 0,–,inactive: 0,–,inactive: 0,–,inactive: 0,–,inactive: 0,–,inactive: 0
CNC(=O)c1ccc(Nc2ncc(C(F)(F)F)c(NCc3nccnc3N(C)S(C)(=O)=O)n2)cc1 [Defactinib (hydrochloride)],–,inactive: 0,–,inactive: 0,–,inactive: 0,–,inactive: 0,–,inactive: 0,–,inactive: 0,–,inactive: 0,–,inactive: 0,–,inactive: 0,–,inactive: 0,–,inactive: 0,–,inactive: 0,–,inactive: 0,–,inactive: 0,–,inactive: 0,–,inactive: 0,–,inactive: 0,–,inactive: 0,–,inactive: 0,–,inactive: 0
COc1cc2c(cc1OC)-c1c(C)c3ccc(OC)c(OC)c3c[n+]1CC2 [Dehydrocorydaline (chloride)],–,inactive: 0,–,inactive: 0,–,inactive: 0,–,inactive: 0,–,inactive: 0,–,inactive: 0,–,inactive: 0,–,inactive: 0,–,inactive: 0,–,inactive: 0,–,inactive: 0,–,inactive: 0,–,inactive: 0,–,inactive: 0,–,inactive: 0,–,inactive: 0,–,inactive: 0,–,inactive: 0,–,inactive: 0,–,inactive: 0
COCCOc1cc(F)c2c(Nc3ccc(NC(=O)Cn4cc(C(C)C)nn4)cc3)ncnc2c1,–,inactive: 0,–,inactive: 0,–,inactive: 0,–,inactive: 0,–,inactive: 0,–,inactive: 0,–,inactive: 0,–,inactive: 0,–,inactive: 0,–,inactive: 0,–,inactive: 0,–,inactive: 0,–,inactive: 0,–,inactive: 0,–,inactive: 0,–,inactive: 0,–,inactive: 0,–,inactive: 0,–,inactive: 0,–,inactive: 0
CC(=O)c1c(C)c2cnc(Nc3ccc(N4CCNCC4)cn3)nc2n(C2CCCC2)c1=O [Palbociclib (monohydrochloride)],–,inactive: 0,–,inactive: 0,–,inactive: 0,–,inactive: 0,–,inactive: 0,–,inactive: 0,–,inactive: 0,–,inactive: 0,–,inactive: 0,–,inactive: 0,–,inactive: 0,–,inactive: 0,–,inactive: 0,–,inactive: 0,–,inactive: 0,–,inactive: 0,–,inactive: 0,–,inactive: 0,–,inactive: 0,–,inactive: 0
C=CC(=O)Nc1cc(Nc2ncc(C(=O)OC(C)C)c(-c3cn(C)c4ccccc34)n2)c(OC)cc1N(C)CCN(C)C [Mobocertinib],–,inactive: 0,–,inactive: 0,–,inactive: 0,–,inactive: 0,–,inactive: 0,–,inactive: 0,–,inactive: 0,–,inactive: 0,–,inactive: 0,–,inactive: 0,–,inactive: 0,–,inactive: 0,–,inactive: 0,–,inactive: 0,–,inactive: 0,–,inactive: 0,–,inactive: 0,–,inactive: 0,–,active: 1,–,inactive: 0
c1cc(-c2cnn3cc(-c4ccc(OCCN5CCCCC5)cc4)cnc23)ccn1 [Dorsomorphin (dihydrochloride)],inactive: 0,–,inactive: 0,–,inactive: 0,–,inactive: 0,–,inactive: 0,–,inactive: 0,–,inactive: 0,–,inactive: 0,–,inactive: 0,–,inactive: 0,–,inactive: 0,–,inactive: 0,–,inactive: 0,–,inactive: 0,–,inactive: 0,–,inactive: 0,–,inactive: 0,–,inactive: 0,–,inactive: 0,–,inactive: 0,–
C=CC(=O)N1CCN(c2ncnc3c(F)c(-c4c(O)cccc4F)c(Cl)cc23)CC1,inactive: 0,inactive: 0,inactive: 0,inactive: 0,inactive: 0,inactive: 0,inactive: 0,inactive: 0,inactive: 0,inactive: 0,inactive: 0,inactive: 0,inactive: 0,inactive: 0,inactive: 0,inactive: 0,inactive: 0,inactive: 0,inactive: 0,inactive: 0,inactive: 0,inactive: 0,inactive: 0,inactive: 0,inactive: 0,inactive: 0,inactive: 0,inactive: 0,inactive: 0,inactive: 0,inactive: 0,inactive: 0,inactive: 0,inactive: 0,inactive: 0,inactive: 0,inactive: 0,inactive: 0,inactive: 0,inactive: 0
N#CCNC(=O)c1ccc(-c2ccnc(Nc3ccc(N4CCOCC4)cc3)n2)cc1 [Momelotinib sulfate],–,inactive: 0,–,inactive: 0,–,inactive: 0,–,inactive: 0,–,inactive: 0,–,inactive: 0,–,inactive: 0,–,inactive: 0,–,inactive: 0,–,inactive: 0,–,inactive: 0,–,inactive: 0,–,inactive: 0,–,inactive: 0,–,inactive: 0,–,inactive: 0,–,inactive: 0,–,inactive: 0,–,inactive: 0,–,inactive: 0
CS(=O)(=O)N1CCN(Cc2cc3nc(-c4cccc5[nH]ncc45)nc(N4CCOCC4)c3s2)CC1 [Pictilisib (dimethanesulfonate)],–,inactive: 0,–,inactive: 0,–,inactive: 0,–,inactive: 0,–,inactive: 0,–,inactive: 0,–,inactive: 0,–,inactive: 0,–,inactive: 0,–,inactive: 0,–,inactive: 0,–,inactive: 0,–,inactive: 0,–,inactive: 0,–,inactive: 0,–,inactive: 0,–,inactive: 0,–,inactive: 0,–,inactive: 0,–,inactive: 0
N#CC[C@H](C1CCCC1)n1cc(-c2ncnc3[nH]ccc23)cn1 [Ruxolitinib],–,inactive: 0,–,inactive: 0,–,inactive: 0,–,inactive: 0,–,inactive: 0,–,inactive: 0,–,active: 1,–,inactive: 0,–,inactive: 0,–,inactive: 0,–,inactive: 0,–,inactive: 0,–,inactive: 0,–,inactive: 0,–,inactive: 0,–,inactive: 0,–,inactive: 0,–,inactive: 0,–,inactive: 0,–,inactive: 0

# Some values from the list:
# c1cc(-c2cnn3cc(-c4ccc(OCCN5CCCCC5)cc4)cnc23)ccn1 [Dorsomorphin (dihydrochloride)] | kinase-Nluc reporter destabilization hit call (EPHA2; 2.5 µM): inactive: 0
# CNC(=O)c1cc(Oc2ccc(NC(=O)Nc3ccc(Cl)c(C(F)(F)F)c3)c(F)c2)ccn1 [Regorafenib] | kinase-Nluc reporter destabilization hit call (EGFR; 2.5 µM): inactive: 0
